Assay results taken from US20220289816A1, “IMMUNOTHERAPY WITH B*07 RESTRICTED PEPTIDES AND COMBINATION OF PEPTIDES AGAINST CANCERS AND RELATED METHODS” (Immatics Biotechnologies GmbH, priority 2018, published 2022).

What was measured:
[1] = system: tumor tissue samples and normal tissue samples (HLA-B*07 positive); assay: Identification and quantitation of tumor associated peptides presented on the cell surface (HLA immunoprecipitation, label-free LC-MS); set-up: species or system human; conditions: cancer entities on which the peptide was found presented (abbreviations in table head)
[2] = system: source genes of the peptides (mRNA); assay: Expression profiling of genes encoding the peptides (RNAseq of tumor and normal tissue RNA); set-up: species or system human; conditions: for Gene Expression in tumor samples: very highly over-expressed (+++): tumor entities in which the source gene of the peptide is very highly over-expressed compared to a panel of normal tissues (RNAseq)
[3] = tumor entities in which the source gene of the peptide is over-expressed compared to a panel of normal tissues (RNAseq)

Substance	Peptide Presentation on cancer entities ([1]; Table 8a)	Gene Expression in tumor samples: very highly over-expressed (+++) [2]	Gene Expression in tumor samples: over-expressed (+) [2, 3]	Peptide Presentation on cancer entities ([1]; Table 8b)	Gene Expression in tumor samples: Highly over-expressed (++) ([2]; tumor types in which the peptide's source gene is highly over-expressed compared to a panel of normal tissues, RNAseq)	Gene Expression in tumor samples: over-expressed (+) ([2]; tumor types in which the peptide's source gene is over-expressed compared to a panel of normal tissues, RNAseq)	Gene Expression in tumor samples: Highly over-expressed (++) ([2]; tumor entities in which the source gene of the peptide is highly over-expressed compared to a panel of normal tissues (RNAseq))
15: peptide found in CYP4Z1 (gene looked up) (KPGFNISIL; listed as Homo sapiens) [compound 15]	BRCA	BRCA	–	–	–	–	–
282: peptide found in MPL (gene looked up) (AVRLPTPNL; listed as Homo sapiens) [compound 282]	AML	–	AML	–	–	–	–
488: peptide found in BTLA (gene looked up) (LPLGGLPLLI; listed as Homo sapiens) [compound 488]	–	–	–	CLL	CLL	NHL	–
86: peptide found in SLC6A3 (gene looked up) (ALLLRGVTL; listed as Homo sapiens) [compound 86]	SCLC	RCC	NSCLCsquam, SCLC	–	–	–	NSCLCadeno

For some assays here: Expression grades refer to the transcript from which the peptide derives; gene names, where given, were looked up from the sequence.
